Values of other authors in patent publication US20140134253A1, “DRY POWDER FOSFOMYCIN/TOBRAMYCIN FORMULATION FOR INHALATION” (Gilead Sciences, Inc., priority 2011, published 2014).

Test system: P. aeruginosa
Conditions: susceptible P. aeruginosa; cited from earlier work

NC[C@H]1O[C@H](O[C@H]2[C@H](O)[C@@H](O[C@H]3O[C@H](CO)[C@@H](O)[C@H](N)[C@H]3O)[C@H](N)C[C@@H]2N)[C@H](N)C[C@@H]1O [tobramycin, Tobramycin]
MIC: less than 2 μg/mL
